## Results of single-concentration screens

From ChEMBL document CHEMBL3988442, “University of Dundee, Small-Polar-MMV Screening Library” (2021).

Mtb cholesterol medium: 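Phenotypic screen: M. tuberculosis growth, cholesterol and DPPC medium, 4 days; the read-out is not stated. Tested at 50 µM. Direction is inferred from retests: higher values go with more growth inhibition. Of about 69,000 compounds tested this way, about 370 (0.54%) reached 50% or more in at least one test.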
Mtb glucose medium: 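Growth of Mycobacterium tuberculosis over 3 days (7H9 medium with glucose and tyloxapol); the read-out is not stated. Tested at 50 µM. Direction is inferred from retests: higher values go with more growth inhibition. Of about 69,000 compounds tested this way, about 760 (1.1%) reached 50% or more in at least one test.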

The filed quantity is “Percent Effect” (%).
The controls that fix the scale are not given in the record; negative values are as filed.
Compounds were drawn at random from those tested, without regard to their results.
Two or more numbers in one place are separate tests of the same structure; such repeats can differ widely.

{"smiles": "[H][C@@]12CCN[C@]1([H])CN(S(=O)(=O)c1ccc(Cl)cc1)C2", "Mtb cholesterol medium": 10.22, "Mtb glucose medium": -5.506}
{"smiles": "Cc1nc(C)n(CC2CCCN2CC(=O)Nc2ccncc2)n1", "stereo": "centres unmarked", "Mtb cholesterol medium": 1.126, "Mtb glucose medium": 11.89}
{"smiles": "Cc1occc1C(=O)N1CCc2ncnc(C3CCOC3)c2CC1", "stereo": "centres unmarked", "Mtb cholesterol medium": "0.1047 and 3.247", "Mtb glucose medium": 1.469}
{"smiles": "CC(C)OCCCNC(=O)CN1CCC(N2CCN(C)C2=O)CC1", "Mtb cholesterol medium": 13.24, "Mtb glucose medium": 9.327}
{"smiles": "Cn1cc(N2CC3(CCN(Cc4ccoc4)CC3)OCC2=O)cn1.O=C(O)C(F)(F)F", "Mtb cholesterol medium": -26.05, "Mtb glucose medium": -9.099}
{"smiles": "O=C(c1cnc(OCC(F)(F)F)c(Cl)c1)N1CCc2ccc(O)cc2C1", "Mtb cholesterol medium": 5.549, "Mtb glucose medium": "-7.101 and 5.43"}
{"smiles": "O=C(O)C(F)(F)F.O=C(O)C(F)(F)F.[H][C@@]12CN(Cc3cnn(C)c3)C[C@@]1([H])N(Cc1cccc(C)c1)C(=O)CO2", "Mtb cholesterol medium": -8.448, "Mtb glucose medium": 6.21}
{"smiles": "Cc1nn(C)c(N(C)C)c1CNC1CCOc2c(Cl)cccc21", "stereo": "centres unmarked", "Mtb cholesterol medium": 0.6627, "Mtb glucose medium": 1.94}
{"smiles": "CCN(Cc1cccc2c1OCCO2)C(=O)NC(C)(C)C", "Mtb cholesterol medium": 0.9928, "Mtb glucose medium": "10.3 and -0.3691"}
{"smiles": "C1=CCN(c2nc(CC3CC3)nc3c2CCN(C2CCOCC2)CC3)C1", "Mtb cholesterol medium": 3.484, "Mtb glucose medium": 3.919}
{"smiles": "CNC(=O)C1CCN(S(C)(=O)=O)CC1", "Mtb cholesterol medium": 0.6097, "Mtb glucose medium": "18.67 and 3.349"}
{"smiles": "COc1ccc(F)cc1C(=O)C1CCCN(Cc2cnc(C)s2)C1", "stereo": "centres unmarked", "Mtb cholesterol medium": 1.016, "Mtb glucose medium": "21.79 and 5.18"}
{"smiles": "O=C(Cn1ccnc1)N1CCCC(OCc2cccnc2)C1", "stereo": "centres unmarked", "Mtb cholesterol medium": -49.28, "Mtb glucose medium": -13.53}
{"smiles": "O=C(CNC(=O)C1CC1)NCc1ccc(Cl)s1", "Mtb cholesterol medium": -19.38, "Mtb glucose medium": 15.54}
{"smiles": "CCC(CO)N(Cc1ccc(F)cc1)Cc1c(C)nn(C)c1Cl", "stereo": "centres unmarked", "Mtb cholesterol medium": "-2.589 and 0.2665", "Mtb glucose medium": -0.6997}
{"smiles": "COc1ccc(OCc2nc(C(=O)N3CC(O)C3)co2)cc1", "Mtb cholesterol medium": 21.1, "Mtb glucose medium": 26.47}
{"smiles": "CC(C)(C)C(=O)NC[C@H]1Cn2c(-c3ccccc3)cnc2CO1", "Mtb cholesterol medium": -6.911, "Mtb glucose medium": "-3.768 and 2.355"}
{"smiles": "Cc1ccc(CN(CCCN2CCOCC2)Cc2cnn(C)c2)o1.O=C(O)CC(O)(CC(=O)O)C(=O)O", "Mtb cholesterol medium": "-3.067 and -23.58", "Mtb glucose medium": -14.93}
{"smiles": "CC(C)[C@H]1CN(C(=O)CC2CCC2)C[C@@H]1N(C)C", "Mtb cholesterol medium": 10.93, "Mtb glucose medium": "-17.06 and -9.971"}
{"smiles": "CN(C)c1ncc(CN2CCC(O)(c3ccccc3F)CC2)cn1.O=C(O)CC(O)(CC(=O)O)C(=O)O", "Mtb cholesterol medium": "-2.614 and 7.298", "Mtb glucose medium": -12.43}
{"smiles": "COC(=O)c1cccc(C2CNCCN2C)c1", "stereo": "centres unmarked", "Mtb cholesterol medium": "-28.05 and 2.251", "Mtb glucose medium": 2.709}
{"smiles": "O=C1CC(c2ncc(-c3ccc4c(c3)OCCO4)[nH]2)CN1C1CCCC1", "stereo": "centres unmarked", "Mtb cholesterol medium": -0.6085, "Mtb glucose medium": 5.869}
{"smiles": "Nc1nccnc1C(=O)NC1CCCN(Cc2c(F)cccc2F)C1", "stereo": "centres unmarked", "Mtb cholesterol medium": -7.677, "Mtb glucose medium": -7.058}
{"smiles": "Cc1cc(CNC(=O)C2CCCCN2C(=O)OC(C)(C)C)no1", "stereo": "centres unmarked", "Mtb cholesterol medium": -11.45, "Mtb glucose medium": 8.275}
{"smiles": "[H][C@]12CC[C@@]3(N=C(CC)NC3=O)[C@@]1([H])CN(CC1CC1)C2", "Mtb cholesterol medium": -30.62, "Mtb glucose medium": "-37.15 and -7.87"}
{"smiles": "CC/C=C(/C)C(=O)N1CCN(C2=NCC(C)S2)CC1", "stereo": "centres unmarked", "Mtb cholesterol medium": -0.3131, "Mtb glucose medium": -13.63}

The last 3 entries again:

{"smiles": "Cc1cc(CNC(=O)C2CCCCN2C(=O)OC(C)(C)C)no1", "stereo": "centres unmarked", "Mtb cholesterol medium": -11.45, "Mtb glucose medium": 8.275}
{"smiles": "[H][C@]12CC[C@@]3(N=C(CC)NC3=O)[C@@]1([H])CN(CC1CC1)C2", "Mtb cholesterol medium": -30.62, "Mtb glucose medium": "-37.15 and -7.87"}
{"smiles": "CC/C=C(/C)C(=O)N1CCN(C2=NCC(C)S2)CC1", "stereo": "centres unmarked", "Mtb cholesterol medium": -0.3131, "Mtb glucose medium": -13.63}